Paper PMC9375285
Read-outs that look alike come from different tables or passages of the source. No constants are given. Whether binding was seen depends on the method and setting. In cells and extracts the contact can be indirect. A result given as binding can be weak or reduced; the word gives no strength.

Protein sequences, listed by entry. Tags and fused reporters are not part of them. Lines headed by an entry give the natural chain unless they say otherwise; changes in a name come on top.
UniProt P05019: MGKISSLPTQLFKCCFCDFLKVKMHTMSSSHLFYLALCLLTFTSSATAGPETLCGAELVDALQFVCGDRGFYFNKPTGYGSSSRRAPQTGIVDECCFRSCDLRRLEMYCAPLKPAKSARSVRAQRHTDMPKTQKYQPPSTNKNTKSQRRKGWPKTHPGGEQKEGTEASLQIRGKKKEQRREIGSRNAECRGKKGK
UniProt P06756: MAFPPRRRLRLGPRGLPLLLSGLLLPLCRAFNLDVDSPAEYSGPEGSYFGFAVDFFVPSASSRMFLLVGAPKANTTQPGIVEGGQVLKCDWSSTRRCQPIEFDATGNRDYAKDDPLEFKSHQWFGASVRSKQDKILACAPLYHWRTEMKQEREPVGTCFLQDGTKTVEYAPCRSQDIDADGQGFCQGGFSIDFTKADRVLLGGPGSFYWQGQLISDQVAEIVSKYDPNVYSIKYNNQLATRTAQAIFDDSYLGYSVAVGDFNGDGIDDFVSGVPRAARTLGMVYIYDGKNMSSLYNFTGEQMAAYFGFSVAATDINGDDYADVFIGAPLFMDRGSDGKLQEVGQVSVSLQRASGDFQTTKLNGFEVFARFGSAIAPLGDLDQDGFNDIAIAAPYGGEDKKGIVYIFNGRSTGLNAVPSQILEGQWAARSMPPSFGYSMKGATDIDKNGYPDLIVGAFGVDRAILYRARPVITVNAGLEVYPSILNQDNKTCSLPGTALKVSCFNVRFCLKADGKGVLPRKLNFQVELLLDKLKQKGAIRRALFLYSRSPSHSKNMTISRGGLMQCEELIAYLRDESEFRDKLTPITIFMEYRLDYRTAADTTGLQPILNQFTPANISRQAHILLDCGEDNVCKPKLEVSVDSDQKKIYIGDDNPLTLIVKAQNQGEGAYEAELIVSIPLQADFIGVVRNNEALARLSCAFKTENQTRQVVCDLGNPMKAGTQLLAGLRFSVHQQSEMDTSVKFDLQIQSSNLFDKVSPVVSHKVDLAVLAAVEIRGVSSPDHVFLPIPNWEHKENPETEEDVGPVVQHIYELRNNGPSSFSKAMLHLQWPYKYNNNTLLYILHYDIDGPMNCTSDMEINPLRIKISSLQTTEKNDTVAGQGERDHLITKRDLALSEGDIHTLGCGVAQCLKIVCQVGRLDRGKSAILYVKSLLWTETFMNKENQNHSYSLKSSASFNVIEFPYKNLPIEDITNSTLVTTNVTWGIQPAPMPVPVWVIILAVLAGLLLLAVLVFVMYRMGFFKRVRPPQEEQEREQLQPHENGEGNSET

Assays:
[1] = molecular target: insulin growth factor-1 (IGF1) (human (endogenous in CAOV4)) (UniProt P05019); experiment: co-IP; cell lysate incubated with Protein A&G Agarose and 1 μg rabbit IgG or IGF1 primary antibody at 4 °C overnight; rinsed twice with 0.5 M NaCl lysis buffer; Western blot; cells with sh-WISP1 and/or IGF1, or overexpressed WISP1
[2] = molecular target: insulin growth factor-1 (IGF1) (human (endogenous in CAOV4)) (UniProt P05019); experiment: as above; remark: listed apart in the source

“integrin αvβ3 (from UniProt P06756 31-1048; P05106 27-788) (receptor)” was tested, and the binding [1] was “binds”.

B1: WISP1 (protein, UniProt O95388 23-367)
chain: TALSPAPTTMDFTPAPLEDTSSRPQFCKWPCECPPSPPRCPLGVSLITDGCECCKMCAQQLGDNCTEAAICDPHRGLYCDYSGDRPRYAIGVCAQVVGVGCVLDGVRYNNGQSFQPNCKYNCTCIDGAVGCTPLCLRVRPPRLWCPHPRRVSIPGHCCEQWVCEDDAKRPRKTAPRDTGAFDAVGEVEAWHRNCIAYTSPWSPCSTSCGLGVSTRISNVNAQCWPEQESRLCNLRPCDVDIHTLIKAGKKCLAVYQPEASMNFTLAGCISTRSYQPKYCGVCMDNRCCIPYKSKTIDVSFQCPDGLGFSRQVLWINACFCNLSCRNPNDIFADLESYPDFSEIAN
With B1 the binding [2] was “binds”.
